Source: PubChem BioAssay AID1508600 (Functional Genomics Laboratory (NCATS/FGL), 2020)
In all, about 53,000 sequences went through this assay and about 3,700 (7%) were called active.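 How the source made its calls: active means gene knockdowns whose robust z-score for IL-1 alpha signal is at least 2 or at most -2, so actives lie on both sides; inactive means the rest.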 This is one part of the list.

Assay: Components of the Cytosolic LPS Sensing Pathway: Gene Identification via Genome-wide siRNA Screen;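 further: robust z of the log signal after scaling to non-targeting control siRNA wells of the plate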
Settings: RAW264.7 macrophages, IL-1a HTRF, actives lie on both sides, screened at 100 nM (by protocol), cells primed 5 h with Pam3CSK4 first
Outline: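 Using IL-1a HTRF as read-out, the screen measured release from RAW264.7 cells after 48h siRNA knockdown (100 nM), 5 h Pam3CSK4 priming and 24 h cytosolic LipidA. Values were expressed relative to negative-control wells as robust z-scores.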

| Sequence | z-score |
| --- | --- |
| CGAAUUAUCAAUAAGCACATT against Mettl3 | inactive: 0.118 |
| GGUUCUGGACAGAUGCUGUTT against Nags | inactive: 1.17 |
| GCAGCAGUGAAAUAGCUUCTT against Eya1 | inactive: -0.643 |
| CCCAAGAUGGUAGCAGACATT against Tbxas1 | inactive: -0.00814 |
| CCUAAGUUCCUGAAAAUAUTT against Epha5 | inactive: -0.454 |
| GGAAAUAUAUCUCUAUCUCTT against Xylt2 | inactive: 0.669 |
| GGUAAUGUACCUAAUAUUGTT against Cnn1 | inactive: 0.307 |
| GCCCUCAACCAUAAUUCAATT against Zscan21 | active: 2.15 |
| GUCAGAGCCUCUGUCUUUUTT against Olfr342 | inactive: 0.877 |
| CCUACUAGAAACUUCCUGATT against Cgrrf1 | inactive: -0.965 |
| CCGAAGCACUUGCUGGUAUTT against Cerk | inactive: 1.95 |
| CCCAAAGCUCUUGCUACUUTT against Olfr823 | inactive: -1.01 |
| GGAAUGAAAGAGAAAGAUUTT against Klhl9 | inactive: -1.74 |
| GCUUUAUCCACAGGUGCCATT against Olfr1350 | inactive: -1.9 |
| GGAAGCCCUUUCCGUCCUUTT against Tacc2 | inactive: 0.115 |
| GGGCAUCUCUCAGCAAUGATT against Asb10 | inactive: -0.659 |
| GUCUAUCCAGCAUCCUUGCTT against Klk8 | inactive: -1.55 |
| GGUGAAGCCAGUUUCUUUATT against Traf3ip2 | inactive: 0.107 |
| GGACAACCUUUACUUCUCUTT against Rhox9 | active: -2.78 |
| GGCAUGCCUGUUGCUAUGATT against Cyp3a44 | inactive: 0.182 |
| GGAGUUUAUGUGAGUGGCATT against Olfr170 | inactive: -0.134 |
| GGAAAGCUUAGGAAUUACUTT against Vps37a | inactive: 0.273 |

| Sequence | z-score |
| --- | --- |
| GGUCACAGAUCGGAAUAUGTT against 4931428F04Rik | inactive: -0.309 |
| GGCUGACCUACAUUAGCAATT against Tas1r2 | inactive: -0.638 |
| GGCUGGAAUACAGUAAUUCTT against Opn1sw | inactive: 0.352 |
| GCAUUCAUGUGCUCUGCCCTT against Ifitm6 | inactive: -0.952 |
| CCGUUUUUUUCUUACAAUGTT against Larp6 | inactive: 0.237 |
| GGGACUUCAUCCGUCAAAATT against Dnajc15 | inactive: 1.42 |
| CGUGGUUCAUUUACAGGUUTT against Rnf2 | inactive: 0.783 |
| GGACAACAUCAUUAGCCUCTT against Egr3 | inactive: 0.311 |
| GGUGGAGUCUUCUUCCUCATT against Ube2d1 | inactive: -0.414 |
| GGCUUCUUUGUUGUUUGCATT against M6pr | inactive: -1.45 |
| CGUAAUGCAUUACCUCAAUTT against Prr18 | inactive: 0.85 |
| GGCCAAUUCCAGUGAGAUGTT against Lgsn | inactive: -0.0795 |
| GGGAAGGAGUUUUUGAAAATT against Tinf2 | inactive: -0.879 |
| GUAUGGAUGUGGAAGCCUCTT against Olfr1417 | inactive: -0.77 |
| GGAGAACACAGGUGGACUUTT against Ppy | inactive: 0.125 |
| CGACCAGUCACAAUGGUUATT against Edil3 | inactive: 1.43 |
| GGAGCUGUCCAGGUUUAUUTT against Psmd6 | active: -2.72 |
| GGUAUUUGUGAAGACGUGUTT against Zfp956 | inactive: -0.619 |
| GCCCUUGGAAUUUACCACUTT against Aldh8a1 | inactive: -0.546 |
| GCAGUUCAAGUCUUGAAUATT against Olfr934 | inactive: -1.09 |
| GGAGAAAGUCUACCUGAGCTT against Tmem132d | inactive: -0.387 |
| CCUGUUGCUCAAAGACUUGTT against Siglec1 | inactive: -1.45 |

| Sequence | z-score |
| --- | --- |
| GGUUCUUUGGAAUGCUUUUTT against Myl12a | active: 2.76 |
| CCACUAUUUAAUCUUACCGTT against Hoxc13 | inactive: 0.175 |
| GGCUUUUGGCAACAGCACUTT against Rbm14 | inactive: -0.494 |
| GGAUGAUCACACUAGAGUUTT against Fam222b | inactive: 0.752 |
| GCUUACCUAACAAAUACAATT against Hacd2 | inactive: 1.99 |
| GUACACCACAAUCCUCACCTT against Olfr677 | inactive: -0.0852 |
| CCGAUCAUUAUGAGCAUACTT against Nxf7 | inactive: -1.76 |
| GGGAAGGACCUCAUUCAACTT against Btnl10 | inactive: 0.719 |
| GCAGAGGAUAUAAAACAAGTT against Pde2a | inactive: -0.86 |
| GGUAGCUAAAGAAAACCAGTT against Rangrf | inactive: -1.12 |
| GGAGAUUACCAGGUAUCAGTT against Ptpn21 | inactive: -1.55 |
| GGCAUUUGACUUUAUUGCATT against Nit1 | active: 3.54 |
| GGACUAUCUUUAUGAUGUGTT against Ush1c | inactive: -0.164 |
| GUCUACUUUGACCGUGAUGTT against Fthl17e | inactive: -1.56 |
| GGCAAUGUGCUGAUCCACUTT against Slc38a10 | inactive: -0.349 |
| GCUAUUACACCAGUUUUAATT against Csde1 | inactive: 0.949 |
| GCUUAUUAACCACUACCACTT against Pik3r3 | inactive: 0.351 |
| GGAGCACAAUUCAAAUUCATT against Zbtb6 | active: 2.06 |
| GCACAAUCAUUCUUCUCAUTT against Mtor | inactive: -0.96 |
| GGUUCGUUUGCAUUGGAAUTT against Cysltr1 | inactive: 0.428 |
| GCCAGAUGCGAUUCUCAGGTT against C730034F03Rik | inactive: 0.195 |
| GGUAUCCAACUGGUUUGUATT against Tgif2lx1 | inactive: 1.54 |

| Sequence | z-score |
| --- | --- |
| GGUCCAUUACGUGCGCUUATT against Cage1 | inactive: -0.00235 |
| CGAUCAUGAGUCGAAGACUTT against Olfr1257 | inactive: 1.43 |
| GCUCAGUGGACAUGCUCUATT against Hpse | inactive: -0.502 |
| GGUCAUUGUCAAAGUCAAGTT against Nutm1 | active: 2.4 |
| GGAGAAAGAUGUGCUCUGGTT against Il1rap | inactive: -1.99 |
| GGAAAGUGCAGGAGAACAGTT against Mettl2 | inactive: -0.304 |
| CCUACACAGCUGAAAUGGUTT against Olfr710 | inactive: -0.375 |
| GGUGAUGGGCAAGGUGUUCTT against Syvn1 | inactive: 0.25 |
| GGCUGUGCUACAGUUUCUCTT against Get4 | inactive: -0.498 |
| CGAAAUAGGUAUUAAGGGUTT against Olfr1372-ps1 | inactive: -0.497 |
| CCAAUAUGGUUUGUGGACUTT against Ube2q2 | inactive: -0.24 |
| GCGAGUUGAAGACUGAAGGTT against Ccdc68 | inactive: 1.44 |
| GGAGAUGAAGAAGAUUCAATT against Pura | inactive: 0.604 |
| GGGUCAUCAGAGCUGACAGTT against Gatad2a | inactive: -1.91 |
| GCUACCUUCAGACAAGCACTT against Prss32 | inactive: -0.877 |
| GGCUCUCUAGAUUCAAAAATT against Lars2 | inactive: 0.883 |
| GGAAUUCAUCUUACAUUCCTT against Acox3 | active: 2.42 |
| GCAAGAACUGACUUUCCUATT against Snn | inactive: 0.768 |
| GGCAGCAGAGAACAAGAAATT against Serbp1 | inactive: -1.43 |
| GGAAGAAGUCUGGAGGAUGTT against Steap3 | inactive: -0.493 |
| GGACACUGUACUCAAACCUTT against Cntnap5b | active: -2.86 |
| GGCACAAAUGAAUUCAUACTT against Zfp958 | inactive: -0.927 |

| Sequence | z-score |
| --- | --- |
| GGAUGAGUUCCUUUUACUATT against Cntnap4 | inactive: 0.285 |
| GCAAGUCUGGAUGGAUGAGTT against 1190005I06Rik | inactive: -1.54 |
| GGUCUCUGAACUGAUCCGUTT against Cyp7a1 | inactive: -0.685 |
| GGUAAAUUGAGAGAAUAACTT against Tpd52 | inactive: 0.214 |
| GGUAAUGCAAACAUGCGGGTT against Lhfpl1 | inactive: -0.519 |
| CCCUGACUUAAUAAGAGACTT against Tmem108 | inactive: -0.21 |
| GGAUUGUCGAGAUUGCGUCTT against Tbcc | inactive: -0.473 |
| GGGUACAAGUGCUGAAAAATT against Grhl1 | inactive: -0.0331 |
| GCAACAAGCUUUCUGUGCGTT against Map10 | inactive: 0.22 |
| GGUUACCUUGAGCUAUGGGTT against Rfng | inactive: 1.23 |
| GGAGAAAGAUGGCUCAUCUTT against Itm2a | inactive: -0.0843 |
| GGUGUCUCUGAAGAUUGAATT against Cdc6 | inactive: 0.345 |
| GGAAUUCAUCACUCAAAUGTT against Catsper4 | inactive: 1.98 |
| GGUGACCAUCAAAUGUGGCTT against Dipk1b | inactive: 0.694 |
| GGUAUUCGCUUAAAAUCCATT against Stab2 | inactive: 1.81 |
| GGAUGUUGUAGUCAAAACCTT against Ttll4 | inactive: 1.28 |
| GGACUGAUGCAUUCUUUGCTT against Trmt10a | inactive: 0.139 |
| CCAUUGUGUCAUACGGCUUTT against Olfr211 | inactive: 0.981 |
